Consider 36 targets from the supplement of paper PMC12819154, “High-throughput peptide-centric local stability assay extends protein–ligand identification to membrane proteins, tissues and bacteria” (Nature Structural & Molecular Biology, 2025).

Sequences of proteins named here, by UniProt entry; tags and fusion partners are left off. A change or cut given only in a name is not applied to a line headed by its entry.
UniProt Q9D051: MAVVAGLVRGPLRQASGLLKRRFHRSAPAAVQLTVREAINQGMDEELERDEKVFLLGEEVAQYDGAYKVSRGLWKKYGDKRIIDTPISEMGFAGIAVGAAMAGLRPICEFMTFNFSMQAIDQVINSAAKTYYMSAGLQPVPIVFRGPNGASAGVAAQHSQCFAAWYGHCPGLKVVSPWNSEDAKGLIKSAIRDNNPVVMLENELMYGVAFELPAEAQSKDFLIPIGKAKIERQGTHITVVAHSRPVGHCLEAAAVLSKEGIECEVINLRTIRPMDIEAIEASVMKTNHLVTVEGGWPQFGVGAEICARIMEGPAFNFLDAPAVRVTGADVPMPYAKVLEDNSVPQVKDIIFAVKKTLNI
UniProt Q9D0F6, whole entry: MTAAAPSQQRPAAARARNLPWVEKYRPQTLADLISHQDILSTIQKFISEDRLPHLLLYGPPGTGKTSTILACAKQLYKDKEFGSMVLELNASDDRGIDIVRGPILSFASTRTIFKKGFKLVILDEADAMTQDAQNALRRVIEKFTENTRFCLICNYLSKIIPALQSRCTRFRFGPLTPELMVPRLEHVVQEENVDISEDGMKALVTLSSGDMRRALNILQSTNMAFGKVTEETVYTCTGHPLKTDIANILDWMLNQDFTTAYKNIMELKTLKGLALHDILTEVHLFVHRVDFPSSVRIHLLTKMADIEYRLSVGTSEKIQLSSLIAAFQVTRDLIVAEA
UniProt Q9CYA6: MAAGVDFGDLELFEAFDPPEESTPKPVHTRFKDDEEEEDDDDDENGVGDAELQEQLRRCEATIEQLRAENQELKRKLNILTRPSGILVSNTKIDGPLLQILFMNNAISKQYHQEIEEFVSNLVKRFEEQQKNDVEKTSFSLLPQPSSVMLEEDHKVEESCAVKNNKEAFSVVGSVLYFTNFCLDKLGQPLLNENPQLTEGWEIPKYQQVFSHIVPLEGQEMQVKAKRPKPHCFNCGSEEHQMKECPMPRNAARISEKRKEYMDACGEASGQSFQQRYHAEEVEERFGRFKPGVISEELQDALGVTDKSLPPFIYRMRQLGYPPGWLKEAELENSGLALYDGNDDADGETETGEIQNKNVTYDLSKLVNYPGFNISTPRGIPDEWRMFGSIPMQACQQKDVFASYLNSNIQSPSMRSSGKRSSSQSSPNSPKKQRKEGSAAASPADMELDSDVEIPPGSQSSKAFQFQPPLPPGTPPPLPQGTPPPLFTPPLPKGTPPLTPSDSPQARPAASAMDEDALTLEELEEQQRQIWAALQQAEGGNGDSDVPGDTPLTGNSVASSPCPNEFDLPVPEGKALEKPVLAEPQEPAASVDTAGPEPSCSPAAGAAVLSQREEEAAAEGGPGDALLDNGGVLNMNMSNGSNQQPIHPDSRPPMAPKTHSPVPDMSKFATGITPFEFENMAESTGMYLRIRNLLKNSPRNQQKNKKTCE
UniProt Q9D0Q7, whole entry: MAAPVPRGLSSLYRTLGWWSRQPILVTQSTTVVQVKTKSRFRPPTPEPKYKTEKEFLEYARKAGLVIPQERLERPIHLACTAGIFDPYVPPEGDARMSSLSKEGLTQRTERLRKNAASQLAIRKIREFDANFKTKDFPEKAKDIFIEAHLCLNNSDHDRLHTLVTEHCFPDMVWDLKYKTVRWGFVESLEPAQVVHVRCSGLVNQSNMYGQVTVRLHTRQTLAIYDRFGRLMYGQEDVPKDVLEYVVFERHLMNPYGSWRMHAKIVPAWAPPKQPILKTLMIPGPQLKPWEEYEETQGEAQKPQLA
UniProt Q9CZV5: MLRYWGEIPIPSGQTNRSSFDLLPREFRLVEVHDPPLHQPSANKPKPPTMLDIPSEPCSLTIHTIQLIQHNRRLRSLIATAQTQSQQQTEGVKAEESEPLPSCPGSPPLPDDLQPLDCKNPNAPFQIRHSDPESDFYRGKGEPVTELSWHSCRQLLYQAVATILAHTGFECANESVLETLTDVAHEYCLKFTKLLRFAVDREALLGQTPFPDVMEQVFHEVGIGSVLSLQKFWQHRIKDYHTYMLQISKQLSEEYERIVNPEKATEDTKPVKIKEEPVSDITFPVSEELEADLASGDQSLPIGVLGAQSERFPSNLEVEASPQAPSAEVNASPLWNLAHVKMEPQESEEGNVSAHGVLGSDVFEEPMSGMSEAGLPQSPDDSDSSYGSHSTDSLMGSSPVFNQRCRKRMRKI
UniProt Q9D0I4: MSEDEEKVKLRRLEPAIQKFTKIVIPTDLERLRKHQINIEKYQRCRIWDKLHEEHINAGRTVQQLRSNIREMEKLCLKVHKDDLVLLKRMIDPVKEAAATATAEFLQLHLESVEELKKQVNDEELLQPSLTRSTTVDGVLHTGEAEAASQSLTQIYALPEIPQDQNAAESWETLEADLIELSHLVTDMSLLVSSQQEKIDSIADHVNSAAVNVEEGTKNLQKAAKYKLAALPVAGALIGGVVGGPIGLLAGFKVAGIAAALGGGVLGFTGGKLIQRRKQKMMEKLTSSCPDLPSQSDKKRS
UniProt Q9CSN1: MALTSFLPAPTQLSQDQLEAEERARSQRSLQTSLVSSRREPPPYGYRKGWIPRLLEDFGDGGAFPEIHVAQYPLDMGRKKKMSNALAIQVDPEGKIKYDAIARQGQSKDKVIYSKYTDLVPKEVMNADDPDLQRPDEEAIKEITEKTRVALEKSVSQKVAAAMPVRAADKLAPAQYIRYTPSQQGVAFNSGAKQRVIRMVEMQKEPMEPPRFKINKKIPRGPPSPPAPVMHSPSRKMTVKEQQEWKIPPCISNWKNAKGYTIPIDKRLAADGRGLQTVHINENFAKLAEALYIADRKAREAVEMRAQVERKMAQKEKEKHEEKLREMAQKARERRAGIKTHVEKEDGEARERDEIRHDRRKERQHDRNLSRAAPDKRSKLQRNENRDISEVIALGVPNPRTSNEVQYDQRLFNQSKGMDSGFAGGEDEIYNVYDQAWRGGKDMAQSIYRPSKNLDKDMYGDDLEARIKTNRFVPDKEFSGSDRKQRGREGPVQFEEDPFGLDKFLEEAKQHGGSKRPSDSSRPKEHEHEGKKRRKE
UniProt Q9CX66: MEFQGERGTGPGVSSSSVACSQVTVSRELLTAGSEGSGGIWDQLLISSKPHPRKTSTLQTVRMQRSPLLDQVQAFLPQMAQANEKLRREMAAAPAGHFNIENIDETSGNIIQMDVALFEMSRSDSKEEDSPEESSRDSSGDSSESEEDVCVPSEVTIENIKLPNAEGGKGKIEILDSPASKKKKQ
UniProt Q9CY45: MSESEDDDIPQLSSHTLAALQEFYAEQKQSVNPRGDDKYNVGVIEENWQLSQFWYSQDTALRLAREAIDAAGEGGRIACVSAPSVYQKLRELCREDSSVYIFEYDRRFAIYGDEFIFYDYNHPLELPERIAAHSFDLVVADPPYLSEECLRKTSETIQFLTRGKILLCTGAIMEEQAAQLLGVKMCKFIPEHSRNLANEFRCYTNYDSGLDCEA
UniProt Q9CZP0: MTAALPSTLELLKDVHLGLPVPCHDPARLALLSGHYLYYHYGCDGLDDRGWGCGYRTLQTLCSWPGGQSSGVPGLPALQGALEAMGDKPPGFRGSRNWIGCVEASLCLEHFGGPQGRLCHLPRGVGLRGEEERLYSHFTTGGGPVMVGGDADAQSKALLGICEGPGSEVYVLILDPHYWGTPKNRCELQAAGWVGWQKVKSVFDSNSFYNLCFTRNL
UniProt Q9CXT7: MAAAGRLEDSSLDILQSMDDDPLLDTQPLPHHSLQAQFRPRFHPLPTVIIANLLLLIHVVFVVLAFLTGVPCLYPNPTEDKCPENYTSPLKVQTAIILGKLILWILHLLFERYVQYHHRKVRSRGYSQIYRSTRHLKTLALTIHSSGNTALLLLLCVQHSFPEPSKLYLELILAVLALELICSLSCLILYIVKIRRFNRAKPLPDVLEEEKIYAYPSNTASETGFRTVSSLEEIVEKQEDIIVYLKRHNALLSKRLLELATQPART
UniProt Q9CY34: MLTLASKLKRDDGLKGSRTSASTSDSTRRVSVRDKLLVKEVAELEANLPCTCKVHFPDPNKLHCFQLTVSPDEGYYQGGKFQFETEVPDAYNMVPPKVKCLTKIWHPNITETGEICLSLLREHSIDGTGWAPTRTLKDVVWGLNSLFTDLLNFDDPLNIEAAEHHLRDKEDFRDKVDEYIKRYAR
UniProt Q9D0R4: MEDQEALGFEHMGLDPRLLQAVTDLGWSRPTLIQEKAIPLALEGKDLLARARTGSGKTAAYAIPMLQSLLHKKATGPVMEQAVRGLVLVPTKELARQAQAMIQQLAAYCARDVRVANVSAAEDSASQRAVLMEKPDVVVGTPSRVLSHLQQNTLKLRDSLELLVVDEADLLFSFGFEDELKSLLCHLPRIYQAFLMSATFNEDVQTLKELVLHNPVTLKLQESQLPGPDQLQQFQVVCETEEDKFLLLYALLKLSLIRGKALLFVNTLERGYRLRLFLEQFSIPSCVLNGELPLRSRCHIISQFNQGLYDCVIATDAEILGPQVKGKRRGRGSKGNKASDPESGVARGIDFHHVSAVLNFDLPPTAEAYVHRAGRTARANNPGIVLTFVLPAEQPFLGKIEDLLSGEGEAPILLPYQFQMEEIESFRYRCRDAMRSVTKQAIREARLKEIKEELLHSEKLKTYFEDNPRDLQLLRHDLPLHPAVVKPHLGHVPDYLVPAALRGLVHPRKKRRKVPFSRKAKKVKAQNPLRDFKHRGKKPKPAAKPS
UniProt Q9CW03: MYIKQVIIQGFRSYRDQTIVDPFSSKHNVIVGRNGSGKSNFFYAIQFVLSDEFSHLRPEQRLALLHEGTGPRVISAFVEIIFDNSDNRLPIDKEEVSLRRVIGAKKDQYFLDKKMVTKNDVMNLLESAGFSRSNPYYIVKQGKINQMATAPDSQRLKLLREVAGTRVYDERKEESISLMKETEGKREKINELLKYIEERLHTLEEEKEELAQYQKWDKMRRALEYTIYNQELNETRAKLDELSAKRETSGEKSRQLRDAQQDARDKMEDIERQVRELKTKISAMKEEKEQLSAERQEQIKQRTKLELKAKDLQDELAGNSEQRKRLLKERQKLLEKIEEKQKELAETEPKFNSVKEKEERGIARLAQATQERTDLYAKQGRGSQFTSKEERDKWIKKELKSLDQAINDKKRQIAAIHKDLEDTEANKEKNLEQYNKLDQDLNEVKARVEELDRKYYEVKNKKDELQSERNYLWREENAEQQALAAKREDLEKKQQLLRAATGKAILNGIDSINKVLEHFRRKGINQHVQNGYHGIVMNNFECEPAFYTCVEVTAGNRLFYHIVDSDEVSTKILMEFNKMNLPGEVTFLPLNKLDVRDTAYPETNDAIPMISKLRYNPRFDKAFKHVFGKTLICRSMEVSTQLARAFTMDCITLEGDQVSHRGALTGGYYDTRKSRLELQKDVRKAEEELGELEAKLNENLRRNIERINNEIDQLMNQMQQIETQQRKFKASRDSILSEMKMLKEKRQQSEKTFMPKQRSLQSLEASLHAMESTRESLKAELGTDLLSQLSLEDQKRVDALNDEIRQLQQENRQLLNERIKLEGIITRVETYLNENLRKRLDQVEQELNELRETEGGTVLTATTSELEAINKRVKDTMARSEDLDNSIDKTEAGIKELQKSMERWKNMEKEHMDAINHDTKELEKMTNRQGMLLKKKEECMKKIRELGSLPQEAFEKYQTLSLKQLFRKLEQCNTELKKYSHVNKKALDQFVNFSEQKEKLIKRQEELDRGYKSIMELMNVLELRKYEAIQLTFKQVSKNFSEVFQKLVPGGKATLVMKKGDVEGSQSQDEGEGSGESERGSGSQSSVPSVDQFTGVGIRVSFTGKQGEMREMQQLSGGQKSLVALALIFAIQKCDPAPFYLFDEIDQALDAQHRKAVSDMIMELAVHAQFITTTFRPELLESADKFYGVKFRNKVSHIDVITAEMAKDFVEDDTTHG
UniProt Q9CYR0: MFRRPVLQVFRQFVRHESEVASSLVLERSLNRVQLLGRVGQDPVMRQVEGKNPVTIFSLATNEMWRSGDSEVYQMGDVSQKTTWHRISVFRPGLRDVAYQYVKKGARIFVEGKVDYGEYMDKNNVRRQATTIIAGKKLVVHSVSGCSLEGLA
UniProt Q9CWW6, whole entry: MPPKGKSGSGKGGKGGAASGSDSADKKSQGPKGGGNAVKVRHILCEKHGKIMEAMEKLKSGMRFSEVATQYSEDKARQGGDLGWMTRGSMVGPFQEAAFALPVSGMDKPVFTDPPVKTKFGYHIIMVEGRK
UniProt Q9CR59: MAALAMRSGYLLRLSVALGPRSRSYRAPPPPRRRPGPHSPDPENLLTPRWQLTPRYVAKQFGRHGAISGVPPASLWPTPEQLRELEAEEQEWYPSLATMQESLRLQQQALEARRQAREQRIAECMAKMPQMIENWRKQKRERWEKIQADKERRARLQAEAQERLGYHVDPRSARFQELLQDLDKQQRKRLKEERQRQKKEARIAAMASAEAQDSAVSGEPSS
UniProt Q9CX99: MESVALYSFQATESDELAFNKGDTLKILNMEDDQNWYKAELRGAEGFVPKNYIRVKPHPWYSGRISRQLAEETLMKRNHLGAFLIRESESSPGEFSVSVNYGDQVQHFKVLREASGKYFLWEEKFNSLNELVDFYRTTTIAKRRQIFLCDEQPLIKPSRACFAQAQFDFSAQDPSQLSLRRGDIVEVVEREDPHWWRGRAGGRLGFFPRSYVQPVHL

Some of the results follow. Most entries show no effect beyond the scatter of the controls.

Compound in this experiment: CN[C@@H]1C[C@H]2O[C@@](C)([C@@H]1OC)n1c3ccccc3c3c4c(c5c6ccccc6n2c5c31)C(=O)NC4 [staurosporine]
Briefly: log2 fold change of tryptic peptide abundance, ligand vs vehicle (limited proteolysis) (log2 ratio); higher = more trypsin-susceptible (destabilized). Conditions: ligand concentration: 20 uM; sample: mouse liver crude lysate; replicate design: treated separately.
For “UniProt Q9D112 (peptide sequence: GQLETNEEEDGLRK, peptide start residue: 85)”, the log2 fold change is -0.666. The value for “UniProt Q9D051 (peptide sequence: DIIFAVKK, peptide start residue: 348)” was 0.0897. “UniProt Q9D0F6 (peptide sequence: FISEDRLPHLLLYGPPGTGK, peptide start residue: 46)”: the log2 fold change was -0.581. For “UniProt Q9CWN7 (peptide sequence: QSELPTQSK, peptide start residue: 224)”, the log2 fold change is -0.0675.

Consider “UniProt Q9CYA6 (peptide sequence: SLPPFIYR, peptide start residue: 308)”, for which the log2 fold change worked out at 0.18. The value for “UniProt Q9D0Q7 (peptide sequence: IVPAWAPPKQPILK, peptide start residue: 265)” was 0.238. In the case of “UniProt Q9CVI2 (peptide sequence: LLSGNESSSK, peptide start residue: 80)”, the log2 fold change is -0.297. The value for “UniProt Q9CZV5 (peptide sequence: HSDPESDFYR, peptide start residue: 129)” was -0.301; that for “UniProt Q9D0I4 (peptide sequence: HQINIEK, peptide start residue: 35)” was -0.291; that for “UniProt Q9CY64 (peptide sequence: FGVVVVGVGR, peptide start residue: 9)” was 0.194. Take “UniProt Q9D0K1 (peptide sequence: AGDMLNLALKEQQPK, peptide start residue: 297)”: the log2 fold change is -0.132.

As to “UniProt Q9CSN1 (peptide sequence: NLDKDMYGDDLEAR, peptide start residue: 453)”, the log2 fold change is -0.171.

As for “UniProt Q9CX66 (peptide sequence: KTSTLQTVR, peptide start residue: 54)”, the log2 fold change was -0.32. Take “UniProt Q9CY45 (peptide sequence: EAIDAAGEGGR, peptide start residue: 66)”: the log2 fold change is -0.498.

Take “UniProt Q9CY27 (peptide sequence: SLKDEDVLQK, peptide start residue: 58)”: the log2 fold change stood at 0.196. In the case of “UniProt Q9CZJ1 (peptide sequence: ALEKNPDEFYYK, peptide start residue: 58)”, the log2 fold change was -0.387. The value for “UniProt Q9CX48 (peptide sequence: LLLQSIGETNIEKK, peptide start residue: 63)” was 0.0147; that for “UniProt Q9CX25 (peptide sequence: RTEELPAAGDAKR, peptide start residue: 13)” was 0.315; that for “UniProt Q9CSP9 (peptide sequence: HVDAMNEYNK, peptide start residue: 322)” was 0.531.

Turning to “UniProt Q9CZP0 (peptide sequence: DVHLGLPVPCHDPAR, peptide start residue: 14)”, the log2 fold change was 0.107. The value for “UniProt Q9CXT7 (peptide sequence: LLELATQPART, peptide start residue: 256)” was 0.0969; that for “UniProt Q9CR84 (peptide sequence: ALLISPALIR, peptide start residue: 6)” was 0.131; that for “UniProt Q9CY34 (peptide sequence: VDEYIKR, peptide start residue: 176)” was 0.426. With “UniProt Q9D0R4 (peptide sequence: TAAYAIPMLQSLLHKK, peptide start residue: 58)”, the log2 fold change amounted to 0.174. For “UniProt Q9CW79 (peptide sequence: NQSLSLFQK, peptide start residue: 158)”, the log2 fold change was -0.131. For the target “UniProt Q9CY16 (peptide sequence: HSPLTQLGPAK, peptide start residue: 85)”, the log2 fold change was found to be 0.306.

On to “UniProt Q9CWM4 (peptide sequence: IKELEQK, peptide start residue: 91)”, for which the log2 fold change was -0.532.

With “UniProt Q9CW03 (peptide sequence: IKLEGIITR, peptide start residue: 819)”, the log2 fold change was determined as 0.34. The value for “UniProt Q9CRA9 (peptide sequence: EILQITR, peptide start residue: 216)” was -0.176; that for “UniProt Q9CXT8 (peptide sequence: IDAVDAETVR, peptide start residue: 442)” was -0.307; that for “UniProt Q9CYR0 (peptide sequence: DVAYQYVKK, peptide start residue: 96)” was -0.532. Regarding “UniProt Q9CWW6 (peptide sequence: GGAASGSDSADKK, peptide start residue: 15)”, the log2 fold change was -0.143. Take “UniProt Q9CR59 (peptide sequence: LQQQALEAR, peptide start residue: 105)”: the log2 fold change is -0.11. As to “UniProt Q9CX99 (peptide sequence: QIFLCDEQPLIKPSR, peptide start residue: 145)”, the log2 fold change was -0.234. Take “UniProt Q9CYG7 (peptide sequence: ALMDSLGPEWR, peptide start residue: 131)”: the log2 fold change is -0.174. With “UniProt Q9CZT6 (peptide sequence: KISDILAK, peptide start residue: 74)”, the log2 fold change was 0.0718.
